PubChem BioAssay AID1508588 | Peter MacCallum Cancer Centre, 2020

Assay: 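Genome-wide search for knock-downs that heighten vemurafenib action in melanoma cells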 (primary screen)
Cell system: human WM266.4 melanoma cells (BRAF V600 mutant)
Reagents: siRNA pool against human genes, 40 nM
Time to read-out: 96 h from transfection to read-out
Challenge: vemurafenib 300 nM (about IC25), added 48 h after transfection, for 48 h; comparison arm got DMSO vehicle only
Measurement: 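Cell gain (DAPI nuclei at end minus before drug, mean of two replicates) and medium lactate by absorbance per cell, both as ratio to non-targeting siRNA, also grouped into fold-change classes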
Direction: cell gain with vemurafenib: higher = more cell gain than with non-targeting siRNA; lactate per cell with vemurafenib: higher = more lactate made per cell
Call rule: 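Enhancement is called by pairing each knock-down's vehicle-arm and drug-arm fold-change classes for viability or glycolysis; which class combinations qualify is not given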
Meaning of the calls: active = enhances vemurafenib effect; inactive = no enhancement seen
In all, the deposit lists about 18,000 reagents; shown is a part drawn at random. Of all reagents, 790 (4.4%) got an active call. 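Calls rest on a combination of fold-change classes in drug and vehicle arms, not all shown here.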 Entries without a mark were called inactive. Some reagents were tested in more than one well and are listed for each. Reagent sequences are not shown.

Target gene | cell gain with vemurafenib | lactate per cell with vemurafenib
CAPZA3 | 0.58 | 0.86
ADGRB3 | 0.52 | 0.97
PRRC2A | 0.63 | 0.62
DNAH9 | 0.97 | 0.76
RGS4 | 0.85 | 0.86
SPATA2 | 0.65 | 0.85
IL7R | 0.91 | 0.56
DIP2A | 0.76 | 0.71
LCP1 | 0.62 | 1.23
RGPD7 (retired record) | 0.91 | 1.08
VCY1B | 0.66 | 1.42
VARS2 | 0.51 | 1.6
TRIR | 0.24 | 2.29
SLC6A12 | 0.67 | 0.55
PDE7A | 0.2 | 1.36
CHST11 | 0.91 | 0.76
SSX5 | -0.02 | 1.85
TAS2R14 | 0.88 | 1.2
FXR2 | 0.41 | 1.6
POU3F2 | 0.6 | 0.54
SLCO4A1 | 0.96 | 1.01
HIPK2 | 1.2 | 0.62
NUCB2 | 0.71 | 1.01
LHFPL5 | 0.45 | 0.52
ANP32E | 0.73 | 0.66
CFAP69 | 0.65 | 0.56
PXK | 0.36 | 1.15
SYF2 | 0.26 | 0.46
SFRP4 | 0.52 | 1.14
H2AC7 | 0.64 | 0.56
P3H3 | 0.35 | 1.18
ZNF513 | 0.12 | 1.25
FMOD | 0.45 | 1.64
PRSS42P | 0.04 | 1.56
PDE4D | 0.46 | 2.15
STK25 | 0.29 | 0.62
MTF1 | 0.43 | 0.56
TMEM217 | 0.12 (active) | 0.18
UBE2B | 0.54 | 0.98
TRIM45 | 1.11 | 0.75
RFNG | 0.76 | 0.98
URGCP | 1.1 | 0.68
DRC2 | 0.42 | 2.29
ZNF227 | 0.97 | 1.02
SLC6A13 | 0.34 (active) | 0.1
NLRP14 | 0.81 | 0.86
KLHL40 | 0.95 | 0.5
DCAF1 | 0.04 | 1.71
ZAP70 | 0.99 | 0.74
TECR | 0.54 | 1.34
KLF10 | 1.08 | 0.84
POTEE | 0.37 | 1.47
POU2AF1 | 0.67 | 1.48
GUCA1A | 0.74 | 1.12
NAT8B | 0.74 | 0.97
LILRA6 | 0.86 | 0.62
RIT1 | 0.63 | 1.11
OR2F1 | 0.34 | 0.62
RPS17 | 0.03 | 1.14
KHDRBS2 | 0.69 | 1.42
OTC | 0.93 | 0.58
SYT1 | 0.15 | 0.27
TAS2R42 | 0.77 | 1.58
AHSA2P | 0.87 | 0.84
TP73 | 0.97 | 0.6
BEND4 | 0.55 | 1.27
GALNT16 | 0.85 | 0.89
WDR74 | 0.32 | 1.07
TFAP2B | 0.74 | 0.78
OR3A4P | 0.62 | 0.3
MYO7B | 0.97 | 0.74
MUSTN1 | 0.17 | 1.48
NPIPA1 | 0.84 | 0.8
ADAMTS12 | 0.69 | 0.52
DONSON | -0.03 | 1.93
PFKFB4 | 0.24 | 1.09
PFKFB4 | 0.29 | 1.12
PEX14 | 0.61 | 0.78
MAFB | 0.95 | 1.05
RASD2 | 1.03 | 1.17
MTMR2 | 0.46 | 0.6
CTRB1 | 0.15 | 1.56
ZNF699 | 0.18 | 2.17
CALB2 | 0.34 | 0.57
